Results are given in words; binding and its absence hold for the method and conditions named. In cells and extracts the contact can be indirect. Some results given as binding are weak or reduced against the parent protein; the word gives no strength.
How the values were obtained:
Myc-SPOP wild type = Myc-SPOP wild type (UniProt O43791); experiment: co-IP; 293T cells co-transfected with FH-ERα and Myc-SPOP-WT or deletion mutants (D1–D8); after 24 h lysates immunoprecipitated with anti-Myc antibody; Western blot
FLAG-HA (FH)-SPOP = FLAG-HA (FH)-SPOP (UniProt O43791); experiment: co-IP; 293T cells co-transfected, lysed 24 h later in BC100 buffer; anti-FLAG M2 agarose beads at 4 °C overnight, eluted with FLAG peptide, Western blot; in one panel cells treated with 10 nM 17β-estradiol (E2) or ethanol for 4 h (more SPOP co-precipitated with E2)
[1] = molecular target: FLAG-HA (FH)-ERα wild type (UniProt P03372); experiment: as above
[2] = molecular target: endogenous ERα (Ishikawa cells) (human (endogenous in Ishikawa)) (UniProt P03372); experiment: co-IP; endogenous proteins; Ishikawa cells treated with 20 μM MG132 for 4 h, lysed in 1x cell lysis buffer; anti-ERα antibody overnight, protein A/G beads, 4 °C; Western blot

Sequences of proteins named here, by UniProt entry; tags and fusion partners are left off.
UniProt O43791: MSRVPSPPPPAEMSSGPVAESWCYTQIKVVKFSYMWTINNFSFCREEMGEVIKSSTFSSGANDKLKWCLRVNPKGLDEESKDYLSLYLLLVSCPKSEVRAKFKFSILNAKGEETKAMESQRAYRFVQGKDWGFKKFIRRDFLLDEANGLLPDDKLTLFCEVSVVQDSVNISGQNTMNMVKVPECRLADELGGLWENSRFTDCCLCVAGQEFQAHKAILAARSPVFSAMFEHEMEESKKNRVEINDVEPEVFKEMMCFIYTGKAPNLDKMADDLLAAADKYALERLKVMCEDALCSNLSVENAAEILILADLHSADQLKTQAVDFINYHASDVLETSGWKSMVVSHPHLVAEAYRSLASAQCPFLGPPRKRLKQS
UniProt P03372: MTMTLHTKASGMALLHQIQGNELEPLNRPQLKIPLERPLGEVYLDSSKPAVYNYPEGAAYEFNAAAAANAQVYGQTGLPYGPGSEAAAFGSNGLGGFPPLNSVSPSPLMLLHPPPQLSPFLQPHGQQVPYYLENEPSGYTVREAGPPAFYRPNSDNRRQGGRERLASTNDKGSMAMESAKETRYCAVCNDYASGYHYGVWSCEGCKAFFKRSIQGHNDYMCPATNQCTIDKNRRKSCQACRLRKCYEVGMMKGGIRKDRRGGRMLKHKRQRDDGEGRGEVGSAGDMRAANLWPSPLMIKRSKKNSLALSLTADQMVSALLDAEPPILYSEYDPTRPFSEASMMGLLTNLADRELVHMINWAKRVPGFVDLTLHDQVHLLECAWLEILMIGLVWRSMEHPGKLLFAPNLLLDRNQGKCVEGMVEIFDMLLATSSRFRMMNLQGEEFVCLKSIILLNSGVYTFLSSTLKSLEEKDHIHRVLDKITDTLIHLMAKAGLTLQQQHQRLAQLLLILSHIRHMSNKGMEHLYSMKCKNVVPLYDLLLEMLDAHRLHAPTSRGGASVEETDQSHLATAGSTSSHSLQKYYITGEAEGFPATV

With “FLAG-HA (FH)-ERα wild type (from UniProt P03372 1-595)” the binding (Myc-SPOP wild type) was “binds”.

With Myc-ERα (from UniProt P03372 1-595) the binding (FLAG-HA (FH)-SPOP) was “binds”.

With “Myc-SPOP wild type (from UniProt O43791 1-374)” the binding [1] was “binds”.

For “endogenous SPOP (Ishikawa cells) (from UniProt O43791 1-374)”, the binding [2] was “binds”.

Source: article PMC4385925
